Source: paper PMC6238531, “The ER morphology-regulating lunapark protein induces the formation of stacked bilayer discs” (Life Science Alliance, 2018)
Results are given in words; binding and its absence hold for the method and conditions named. Some results given as binding are weak or reduced against the parent protein; the word gives no strength.

Biological target: T1, SBP-tagged full-length human Lnp (human, UniProt Q9C0E8 1-428)
T1 construct: lunapark (Lnp), human, full length; a tobacco etch virus protease cut site stands between Lnp and the SBP tag; Membrane protein with two TM segments, kept in 0.05% Triton X-100 in the pull-down; also called lunapark; SBP-tagged human Lnp; source: S. cerevisiae (pRS425, GAL1 promoter), purified in Triton X-100 (streptavidin resin, biotin elution, SEC on Superose 6); not shown: SBP, C-terminal, kept
T1 sequence (looked up): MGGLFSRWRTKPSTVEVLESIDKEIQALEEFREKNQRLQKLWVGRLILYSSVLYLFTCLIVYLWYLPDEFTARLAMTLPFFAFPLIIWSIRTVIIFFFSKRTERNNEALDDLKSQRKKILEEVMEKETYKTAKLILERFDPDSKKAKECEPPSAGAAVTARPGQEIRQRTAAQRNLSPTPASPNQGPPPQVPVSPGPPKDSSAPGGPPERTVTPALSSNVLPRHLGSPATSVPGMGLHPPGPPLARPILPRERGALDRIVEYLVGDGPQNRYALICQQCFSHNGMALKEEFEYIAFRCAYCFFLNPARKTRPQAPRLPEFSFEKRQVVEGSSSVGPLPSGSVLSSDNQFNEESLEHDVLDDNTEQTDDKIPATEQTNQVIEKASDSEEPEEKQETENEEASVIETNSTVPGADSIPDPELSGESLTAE
Test: pull-down; SBP-tagged human Lnp mixed with His10-tagged Lnp (molar ratio 1:3 or 1:5), 1 h at 4°C in 20 mM Hepes pH 7.5, 100 mM KCl, 1 mM dithiothreitol, 0.05% Triton X-100; held on streptavidin resin, washed, eluted with 2 mM biotin; SDS-PAGE and Coomassie blue staining; both purified

binding: binds
Substance: Lnp lacking the Zn2+-finger domain (ΔI275–F302) (from UniProt Q9C0E8 1-428)
